{"source": "PubChem BioAssay AID1224830, NIAID – 2016", "test": "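Host factors that control LPS-induced TNF expression in human macrophages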 (primary screen)", "system": "human THP-1 monocytic leukaemia cells, TNF dual-luciferase reporter clone, PMA-differentiated to macrophage-like cells", "reagent": "siRNA pool against human genes, 50 nM", "timing": "LPS for 4 h, given about 3 days after siRNA transfection", "challenge": "bacterial LPS (TLR4 ligand), 10 ng/ml", "measurement": "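TNF firefly reporter luminescence divided by renilla, normalised to the plate median, then turned into a robust z-score for each replicate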", "direction": "TNF reporter robust z-score: higher = stronger TNF reporter response to LPS", "hit rule": "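a well is active when its z-score exceeds 2.8 or falls below -1.5; control wells carry no call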", "note": "Here is a random part of about 18,000 reagents. About 2,900 of all reagents (16%) count as active. 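Calls are made per well; low scores hint the gene aids the LPS response, high scores that it dampens it.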 Repeated entries: four replicate wells of each siRNA pool."}
{"gene": "DSC3 (desmocollin 3)", "TNF reporter robust z-score": -1.36, "outcome": "inactive"}
{"gene": "DSC3 (desmocollin 3)", "TNF reporter robust z-score": -0.97, "outcome": "inactive"}
{"gene": "DSC3 (desmocollin 3)", "TNF reporter robust z-score": -1.16, "outcome": "inactive"}
{"gene": "DSC3 (desmocollin 3)", "TNF reporter robust z-score": -0.86, "outcome": "inactive"}
{"gene": "SLC22A17", "TNF reporter robust z-score": -0.94, "outcome": "inactive"}
{"gene": "SLC22A17", "TNF reporter robust z-score": -0.56, "outcome": "inactive"}
{"gene": "SLC22A17", "TNF reporter robust z-score": -0.72, "outcome": "inactive"}
{"gene": "SLC22A17", "TNF reporter robust z-score": -0.91, "outcome": "inactive"}
{"gene": "ACBD6 (acyl-CoA binding domain containing 6)", "TNF reporter robust z-score": -0.39, "outcome": "inactive"}
{"gene": "ACBD6 (acyl-CoA binding domain containing 6)", "TNF reporter robust z-score": -0.55, "outcome": "inactive"}
{"gene": "ACBD6 (acyl-CoA binding domain containing 6)", "TNF reporter robust z-score": -0.56, "outcome": "inactive"}
{"gene": "TMEM161B (transmembrane protein 161B)", "TNF reporter robust z-score": 0.19, "outcome": "inactive"}
{"gene": "TMEM161B (transmembrane protein 161B)", "TNF reporter robust z-score": 0.73, "outcome": "inactive"}
{"gene": "TMEM161B (transmembrane protein 161B)", "TNF reporter robust z-score": 0.46, "outcome": "inactive"}
{"gene": "TMEM161B (transmembrane protein 161B)", "TNF reporter robust z-score": 0.89, "outcome": "inactive"}
{"gene": "TRAPPC8 (trafficking protein particle complex subunit 8)", "TNF reporter robust z-score": 1.92, "outcome": "inactive"}
{"gene": "TRAPPC8 (trafficking protein particle complex subunit 8)", "TNF reporter robust z-score": 1.8, "outcome": "inactive"}
{"gene": "TRAPPC8 (trafficking protein particle complex subunit 8)", "TNF reporter robust z-score": 1.42, "outcome": "inactive"}
{"gene": "TRAPPC8 (trafficking protein particle complex subunit 8)", "TNF reporter robust z-score": 2.65, "outcome": "inactive"}
{"gene": "IQCB1 (IQ motif containing B1)", "TNF reporter robust z-score": -0.17, "outcome": "inactive"}
{"gene": "IQCB1 (IQ motif containing B1)", "TNF reporter robust z-score": 0.92, "outcome": "inactive"}
{"gene": "IQCB1 (IQ motif containing B1)", "TNF reporter robust z-score": -0.72, "outcome": "inactive"}
{"gene": "TP73 (tumor protein p73)", "TNF reporter robust z-score": -0.59, "outcome": "inactive"}
{"gene": "TP73 (tumor protein p73)", "TNF reporter robust z-score": 0.84, "outcome": "inactive"}
{"gene": "TP73 (tumor protein p73)", "TNF reporter robust z-score": 0.5, "outcome": "inactive"}
{"gene": "TP73 (tumor protein p73)", "TNF reporter robust z-score": 0.87, "outcome": "inactive"}
{"gene": "RNF181 (ring finger protein 181)", "TNF reporter robust z-score": -1.38, "outcome": "inactive"}
{"gene": "RNF181 (ring finger protein 181)", "TNF reporter robust z-score": 0.32, "outcome": "inactive"}
{"gene": "RNF181 (ring finger protein 181)", "TNF reporter robust z-score": -0.46, "outcome": "inactive"}
{"gene": "RNF181 (ring finger protein 181)", "TNF reporter robust z-score": 0.21, "outcome": "inactive"}
{"gene": "HYPK (huntingtin interacting protein K)", "TNF reporter robust z-score": -1.16, "outcome": "inactive"}
{"gene": "HYPK (huntingtin interacting protein K)", "TNF reporter robust z-score": -0.91, "outcome": "inactive"}
{"gene": "HYPK (huntingtin interacting protein K)", "TNF reporter robust z-score": -1.96, "outcome": "active"}
{"gene": "HYPK (huntingtin interacting protein K)", "TNF reporter robust z-score": -1.49, "outcome": "inactive"}
{"gene": "ELOA (elongin A)", "TNF reporter robust z-score": -0.66, "outcome": "inactive"}
{"gene": "ELOA (elongin A)", "TNF reporter robust z-score": -1.1, "outcome": "inactive"}
{"gene": "ELOA (elongin A)", "TNF reporter robust z-score": -0.16, "outcome": "inactive"}
{"gene": "ELOA (elongin A)", "TNF reporter robust z-score": -1.21, "outcome": "inactive"}
{"gene": "CALML3 (calmodulin like 3)", "TNF reporter robust z-score": 2.14, "outcome": "inactive"}
{"gene": "CALML3 (calmodulin like 3)", "TNF reporter robust z-score": 0.58, "outcome": "inactive"}
{"gene": "CALML3 (calmodulin like 3)", "TNF reporter robust z-score": 1.53, "outcome": "inactive"}
{"gene": "CALML3 (calmodulin like 3)", "TNF reporter robust z-score": 0.69, "outcome": "inactive"}
{"gene": "PTCHD1 (patched domain containing 1)", "TNF reporter robust z-score": -0.16, "outcome": "inactive"}
{"gene": "PTCHD1 (patched domain containing 1)", "TNF reporter robust z-score": 0.28, "outcome": "inactive"}
{"gene": "PTCHD1 (patched domain containing 1)", "TNF reporter robust z-score": -0.28, "outcome": "inactive"}
{"gene": "PTCHD1 (patched domain containing 1)", "TNF reporter robust z-score": 0.06, "outcome": "inactive"}
{"gene": "CLEC2B (C-type lectin domain family 2 member B)", "TNF reporter robust z-score": -1.46, "outcome": "inactive"}
{"gene": "CLEC2B (C-type lectin domain family 2 member B)", "TNF reporter robust z-score": 0.06, "outcome": "inactive"}
{"gene": "CLEC2B (C-type lectin domain family 2 member B)", "TNF reporter robust z-score": -0.92, "outcome": "inactive"}
{"gene": "CLEC2B (C-type lectin domain family 2 member B)", "TNF reporter robust z-score": -0.93, "outcome": "inactive"}
